Taken from: PubChem BioAssay AID1259272 (Sanger Institute, 2017)
Shown is an unselected part of 794 reagents. Over the whole deposit, 7 (0.88%) got an active call. 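Essential calls reflect knock-down without drug only, not synergy with drugs; drug exposure length not given.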 A number with no mark means an inactive call. Viability is capped at 1. Not all columns of the deposit are shown. The record does not give: the amount of reagent, the time to read-out.

Aim: 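Find kinases needed for SW1116 growth and partners for drug combinations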 (primary screen)
Cells: SW1116 human colorectal cancer cells
Reagents: siRNA pool against human genes
Treatment: anchor drugs BYL719 (1 µM), cetuximab (5 µg/ml) or trametinib (10 nM), or DMSO vehicle; exposure length not given
Measured: 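Replicate-averaged viability versus control-pool wells, with a robust z-score for siRNA alone and a per-drug synergy score (BYL719, cetuximab, trametinib)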
Scale: viability z-score, no drug: higher = more cells remaining; strongly negative means essential gene; viability, no drug: higher = more viable cells
Units: viability, no drug in fraction of control
Hit rule: 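Called essential if the drug-free knock-down gives a robust viability z-score below -3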
Calls: active = essential (knock-down alone); inactive = no change

STRADA (STE20 related adaptor alpha)
- viability z-score, no drug: 0.461
- viability, no drug: 0.959

SPHK2 (sphingosine kinase 2)
- viability z-score, no drug: -0.29
- viability, no drug: 0.879

PKN3 (protein kinase N3)
- viability z-score, no drug: -0.0969
- viability, no drug: 0.9

DGKH (diacylglycerol kinase eta)
- viability z-score, no drug: -0.0581
- viability, no drug: 0.904

GUCY2EP (guanylate cyclase 2E, pseudogene)
- viability z-score, no drug: 0.842
- viability, no drug: 1

KCNH8 (potassium voltage-gated channel subfamily H member 8)
- viability z-score, no drug: -2.27
- viability, no drug: 0.668

CDK11B (cyclin dependent kinase 11B)
- viability z-score, no drug: 0.842
- viability, no drug: 1

SHPK (sedoheptulokinase)
- viability z-score, no drug: -0.347
- viability, no drug: 0.873

NEK10 (NIMA related kinase 10)
- viability z-score, no drug: -0.261
- viability, no drug: 0.882

GRK7 (G protein-coupled receptor kinase 7)
- viability z-score, no drug: 0.842
- viability, no drug: 1

PKDCC (protein kinase domain containing, cytoplasmic)
- viability z-score, no drug: 0.842
- viability, no drug: 1

FN3KRP (fructosamine 3 kinase related protein)
- viability z-score, no drug: -1.69
- viability, no drug: 0.73

MECOM (MDS1 and EVI1 complex locus)
- viability z-score, no drug: 0.842
- viability, no drug: 1

MAP2K4 (mitogen-activated protein kinase kinase 4)
- viability z-score, no drug: -1.04
- viability, no drug: 0.8

ACO1 (aconitase 1)
- viability z-score, no drug: -1.8
- viability, no drug: 0.719

TAOK1 (TAO kinase 1)
- viability z-score, no drug: -1.06
- viability, no drug: 0.797

STK32C (serine/threonine kinase 32C)
- viability z-score, no drug: 0.842
- viability, no drug: 1

IP6K3 (inositol hexakisphosphate kinase 3)
- viability z-score, no drug: -0.991
- viability, no drug: 0.805

STK26 (serine/threonine kinase 26)
- viability z-score, no drug: 0.841
- viability, no drug: 1

A few values from above:
CDK11B (cyclin dependent kinase 11B), viability, no drug → 1
PKDCC (protein kinase domain containing, cytoplasmic), viability, no drug: 1
